Measured values as given in PubChem BioAssay AID1671190 (National Center for Advancing Translational Sciences (NCATS), 2021).
Out of some 580,000 compounds screened, about 6,100 (1.1%) were called active. This list was built around the results that the source calls inconclusive (neither active nor inactive); the mix of calls is not that of the screen. The call rests on the fitted dose curve; in most records, active means well fitted inhibition curve with a large enough effect; inconclusive means small, poorly fitted or top-dose-only effect, or another doubt; inactive means no such curve, though single readings can be large or run the other way. Where the call is inconclusive, the potency comes from a doubtful curve fit.

Protein sequences, listed by entry. Tags and fused reporters are not part of them.
UniProt P18054, whole entry, looked up: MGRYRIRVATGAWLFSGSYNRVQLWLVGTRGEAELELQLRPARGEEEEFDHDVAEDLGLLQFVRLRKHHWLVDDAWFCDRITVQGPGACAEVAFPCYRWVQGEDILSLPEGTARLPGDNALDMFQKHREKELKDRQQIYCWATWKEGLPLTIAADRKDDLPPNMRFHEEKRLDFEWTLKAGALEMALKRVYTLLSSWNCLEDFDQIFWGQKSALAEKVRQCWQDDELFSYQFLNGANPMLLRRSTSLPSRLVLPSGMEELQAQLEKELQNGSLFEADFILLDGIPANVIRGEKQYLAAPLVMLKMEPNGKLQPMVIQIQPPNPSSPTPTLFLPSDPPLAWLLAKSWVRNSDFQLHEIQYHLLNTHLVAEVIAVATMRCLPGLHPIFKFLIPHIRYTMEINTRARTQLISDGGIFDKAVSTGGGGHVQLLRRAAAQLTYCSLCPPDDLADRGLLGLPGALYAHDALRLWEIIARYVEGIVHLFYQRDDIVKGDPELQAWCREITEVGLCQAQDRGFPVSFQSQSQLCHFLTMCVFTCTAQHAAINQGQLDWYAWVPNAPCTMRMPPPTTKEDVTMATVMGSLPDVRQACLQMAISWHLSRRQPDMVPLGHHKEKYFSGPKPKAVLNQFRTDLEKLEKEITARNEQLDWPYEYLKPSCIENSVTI

These compounds were tested against Polyunsaturated fatty acid lipoxygenase ALOX12 (Homo sapiens) (UniProt P18054) (assay: Primary qHTS assay for inhibitors of human arachidonate 12S-lipoxygenase (ALOX12): Round 2). Settings: purified 12hLO, xylenol orange hydroperoxide absorbance; activity change, negative = inhibition: at 108 µM (top of the series) unless noted.
Outline: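 Purified human 12hLO (150 nM final) in 25 mM Hepes, 0.01% Triton X-100, pH 7.0 was preincubated 15 min at room temperature with compound. Then 40 uM arachidonic acid was added, 30 min. Hydroperoxide was read by Fe-XO absorbance ratio 573/405 nm.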
On the % scale 0 is the no-effect control and ±100 the full control effect; potency means the concentration at half of the fitted maximal effect.

Q: How did the “activity change, negative = inhibition” value turn out when Cc1nc2n(c(=O)c1C)CN(CCN1CCOCC1)CN2c1cccc(C(F)(F)F)c1 was run?
A: The value was inactive: 8.23%.

Q: Which Potency does the source give for CCN(Cc1c(C)nn(CC)c1C)C(=O)Cn1nc2n(c1=O)CCC(N)CC2 (stereo not given) here?
A: The Potency was inconclusive: 8.91 µM [inhibitor, partial curve, poor fit].

Q: Which Potency does the source give for Cc1ccc(-c2nc(Nc3ccc(O)cc3)c3ccccc3n2)cc1 here?
A: The Potency was inconclusive: 44.7 µM [inhibitor, partial curve, poor fit].

Q: Cc1nn(-c2ccccc2)c2sc(C(=O)Nc3cccc(O)c3)cc12 was tested. Which Potency did it give?
A: Its Potency is inconclusive: 100 µM [inhibitor, partial curve, poor fit].

Q: For O=C(NC1CCCc2c1[nH]c1ccccc21)c1cccnc1 (stereo not given), which Potency is on record?
A: Its Potency is inconclusive: 39.8 µM [inhibitor, partial curve].

Q: How did the Potency turn out when OCCN(Cc1ccccc1)CC1CC=CCC1 (stereo not given) was run?
A: Its Potency is inconclusive: 1.26 µM [inhibitor, full curve, poor fit].

Q: For Cc1ccc(-c2nc(CS(=O)(=O)CC(=O)Nc3cc(C)ccc3C)c(C)o2)cc1, which Potency is on record?
A: Its Potency is inconclusive: 126 µM [inhibitor, single point].

Q: How did the Potency turn out when COc1ccccc1NC(=O)CSc1nnnn1-c1ccc(F)cc1 was run?
A: The Potency was inconclusive: 1.12 µM [inhibitor, full curve, poor fit].

Q: How did the “activity change, negative = inhibition” value turn out when Cc1nnc2n1CCC(NC(=O)c1cccn1C)CC2 (stereo not given) was run?
A: Its value is inactive: 26.2%.

Q: Which Potency does the source give for COc1cc(Br)c(/C=C/C(=O)O)cc1OC here?
A: Its Potency is inconclusive: 22.4 µM [inhibitor, full curve, poor fit].

Q: Which Potency does the source give for O=C(Nc1ccc([C@H]2OCC(=O)N(C3CCOCC3)[C@@H]2CO)cc1)C1CCC1 here?
A: Its Potency is inconclusive: 1 µM [inhibitor, full curve, poor fit].

Q: Which “activity change, negative = inhibition” value does the source give for O=c1c2cc(N3CCOCC3)ccc2[nH]c(=S)n1Cc1ccc(Cl)cc1 here?
A: The value was inactive: -5.73%.

Q: Which Potency does the source give for CC1CN(C)CCC1OC(=O)c1ccccc1 (stereo not given) here?
A: Its Potency is inconclusive: 44.7 µM [inhibitor, partial curve, poor fit].

Q: Which “activity change, negative = inhibition” value does the source give for Cc1ccc(NC(=O)CN(c2cc(C)cc(C)c2)S(=O)(=O)c2c(C)noc2C)nc1 here?
A: Its value is inactive: -6.51%.

Q: For COc1cc(C)c(CN2CCN(c3ncccn3)CC2)cc1C, which Potency is on record?
A: Its Potency is inconclusive: 0.355 µM [inhibitor, full curve, poor fit].

Q: For CCCN1CCC2(CCN(C(=O)Nc3ccc(Cl)cc3)CC2)Oc2ccccc21, which Potency is on record?
A: Its Potency is inconclusive: 17.8 µM [inhibitor, full curve].

Q: How did the “activity change, negative = inhibition” value turn out when O=C(NCCCN1CCCC1)c1cc(Sc2ccc(F)cc2)nc2ccccc12 was run?
A: The value was inactive: -15.1%.

Q: For N#Cc1nc(-c2cccc3ccccc23)oc1NCc1ccc2c(c1)OCO2, which Potency is on record?
A: Its Potency is active: 31.6 µM.

Q: Which “activity change, negative = inhibition” value does the source give for O=C(NCCS(=O)(=O)c1ccc(Cl)cc1)c1ccc(F)cc1 here?
A: The value was inactive: 4.12%.

Q: How did the Potency turn out when Cc1nc(-c2ccc3c(c2)OCO3)cs1 was run?
A: Its Potency is inconclusive: 28.2 µM [inhibitor, partial curve, poor fit].

Q: How did the Potency turn out when Cc1ccc(S(=O)(=O)N2C(=O)C(c3ccccc3)SC2=Nc2ccccc2)cc1 (stereo not given) was run?
A: Its Potency is inconclusive: 50.1 µM [inhibitor, partial curve, poor fit].

Q: O=C(C=Cc1ccco1)c1ccco1 was tested. Which Potency did it give?
A: Its Potency is active: 8.91 µM.

Q: For CCc1nncn1C1CCN(S(=O)(=O)c2cccc(OC)c2)CC1, which Potency is on record?
A: The Potency was active: 79.4 µM.

Q: With COc1ccc(N(C(=O)C(C)C)S(=O)(=O)c2cccc([N+](=O)[O-])c2)cc1 as the compound, how does the Potency read?
A: Its Potency is inconclusive: 89.1 µM [inhibitor, single point].

Q: For Cc1ccc(CN2C(=O)C3CCCN3c3ncccc32)cc1 (stereo not given), which Potency is on record?
A: Its Potency is inconclusive: 0.631 µM [inhibitor, full curve, poor fit].

Q: How did the Potency turn out when Cc1cc(C)cc(NC(=O)N2CCCC(c3noc(COc4ccccc4)n3)C2)c1 (stereo not given) was run?
A: The Potency was inconclusive: 10 µM [inhibitor, full curve].

Q: For COc1ccccc1OCC(O)CN1CCN(CC(=O)Nc2c(C)cccc2C)CC1 (stereo not given), which Potency is on record?
A: The Potency was inconclusive: 35.5 µM [inhibitor, partial curve, poor fit].

Q: With COCC(=O)N1CCN(C)CC1C(=O)N1CCc2nc[nH]c2C1 (stereo not given) as the compound, how does the Potency read?
A: The Potency was inconclusive: 10 µM [inhibitor, full curve].

Q: CCNc1ccc(OC)cc1 was tested. Which Potency did it give?
A: The Potency was inconclusive: 79.4 µM [inhibitor, single point].

Q: CCN(CC)CC(O)COc1ccc2c(c1)OCO2 (stereo not given) was tested. Which “activity change, negative = inhibition” value did it give?
A: Its value is inactive: -26.5%.

Q: Cc1nn(C(=O)CCC(=O)N2CCC(CCOc3ccccc3F)C2)c2ccccc12 (stereo not given) was tested. Which Potency did it give?
A: The Potency was inconclusive: 100 µM [inhibitor, partial curve, poor fit].

Q: Cc1ccc(Cl)cc1N1CCN(Cc2nc3ccsc3c(=O)[nH]2)CC1 was tested. Which Potency did it give?
A: The Potency was inconclusive: 22.4 µM [inhibitor, single point].

Q: How did the “activity change, negative = inhibition” value turn out when Cc1ccc2nc(Cl)c3cc(C(=O)N(CCN(C)C)Cc4ccco4)sc3c2c1 was run?
A: The value was inactive: -24.3%.

Q: How did the Potency turn out when C/C(=N\Nc1ccc(F)cc1F)c1sc2ccc(Cl)cc2c1C was run?
A: The Potency was inconclusive: 0.631 µM [inhibitor, full curve, poor fit].

Q: O=C(O)CCCNC(=O)Cn1ccc2ccc(Cl)cc21 was tested. Which Potency did it give?
A: The Potency was inconclusive: 5.62 µM [inhibitor, full curve, poor fit].

Q: Which “activity change, negative = inhibition” value does the source give for CCS(=O)(=O)c1nc(-c2ccc(Cl)cc2)cc(C(F)(F)F)n1 here?
A: The value was inactive: 4.1%.

Q: CCCCn1c(=O)[nH]c(=O)c2c1nc(COC(=O)C1(C#N)CCCC1)n2C was tested. Which Potency did it give?
A: The Potency was inconclusive: 50.1 µM [inhibitor, partial curve, poor fit].

Q: Which Potency does the source give for CC(=O)NC(CC(=O)Nc1ccc(S(=O)(=O)Nc2nccs2)cc1)c1ccccc1 (stereo not given) here?
A: Its Potency is inconclusive: 3.98 µM [inhibitor, full curve, poor fit].

Q: With Cc1cc(C)c2nc(NC(=O)c3ccc([N+](=O)[O-])o3)sc2c1 as the compound, how does the “activity change, negative = inhibition” value read?
A: Its value is inactive: 5.1%.

Q: Which “activity change, negative = inhibition” value does the source give for CCOc1ccc(CCN2C(=O)C(=O)N([C@@H](Cc3ccccc3)CN3CCC[C@H]3CN3C(=O)C(=O)NC[C@@H]3Cc3ccccc3)C[C@@H]2CC(C)C)cc1 here?
A: The value was inactive: -3.83%.

Q: For O=C(CN1CCN(c2ccc(F)cc2)CC1)c1cccs1, which “activity change, negative = inhibition” value is on record?
A: Its value is inactive: -22.7%.

Q: CCNc1nc(-c2sc(NC(=O)C(C)(C)C)nc2C)c(-n2cc(-c3ccccc3)nn2)s1 was tested. Which Potency did it give?
A: The Potency was inconclusive: 70.8 µM [inhibitor, partial curve, poor fit].

Q: How did the Potency turn out when C/C(=N\NS(C)(=O)=O)c1ccc(C)cc1 was run?
A: The Potency was inconclusive: 112 µM [inhibitor, single point].

Q: How did the Potency turn out when COc1ccc(S(=O)(=O)Nc2cccc(-c3ccc(N4CCCCCC4)nn3)c2)c(OC)c1 was run?
A: The Potency was “inactive”.

Q: Cc1ccc(S(=O)(=O)N2CCN(C(=O)CSC3CCCC3)CC2)c(C)c1 was tested. Which Potency did it give?
A: The Potency was inconclusive: 89.1 µM [inhibitor, single point].

Q: With CC(=O)Nc1ccc2c(c1)n(C)c(=O)n2C as the compound, how does the “activity change, negative = inhibition” value read?
A: The value was inactive: 26.8%.

Q: For COc1cccc2c1Oc1ncccc1N(c1ccc(C(=O)NCc3cccc(C)c3)s1)C2, which “activity change, negative = inhibition” value is on record?
A: Its value is inactive: -3.46%.

Q: How did the Potency turn out when O=C(O)CNCc1ccccc1 was run?
A: The Potency was inconclusive: 0.794 µM [inhibitor, full curve].

Q: For CCN(C(=O)c1nn(Cc2ccccc2)c(=O)c2ccccc12)C(C)C, which Potency is on record?
A: The Potency was inconclusive: 126 µM [inhibitor, partial curve, poor fit].

Q: Which “activity change, negative = inhibition” value does the source give for Cc1ccc(O)c(/C=N/NC(=O)Cc2ccc(Cl)cc2)c1 here?
A: Its value is inactive: -24.2%.

Q: Which Potency does the source give for CCN(CC)CC#CCOC(c1ccccc1)c1ccccc1 here?
A: The Potency was inconclusive: 50.1 µM [inhibitor, partial curve, poor fit].

Q: How did the “activity change, negative = inhibition” value turn out when CC(=O)c1ccc(OCc2cc(C(=O)N3CCN4CCCC4C3)no2)cc1 (stereo not given) was run?
A: Its value is inactive: -0.678%.

Q: How did the “activity change, negative = inhibition” value turn out when COc1ccc(OC)c(NC(=O)COC(=O)c2n[nH]c3ccccc23)c1 was run?
A: The value was inactive: 198%.

Q: How did the “activity change, negative = inhibition” value turn out when CN(Cc1ccco1)C(=O)CCc1ncc(-c2c(F)cccc2F)o1 was run?
A: The value was inactive: 14.4%.

Q: With O=C(OCc1cc(=O)n2nc(-c3cccs3)sc2n1)c1ccc(F)cc1 as the compound, how does the “activity change, negative = inhibition” value read?
A: The value was inactive: -8.32%.

Q: For COc1cc(/C=C(\C#N)C(=O)C(C)(C)C)ccc1OCc1ccc(Cl)cc1Cl, which Potency is on record?
A: Its Potency is inconclusive: 79.4 µM [inhibitor, single point].

Q: CCCOc1ccccc1N1C(=O)CC(N(O)c2ccccc2)C1=O (stereo not given) was tested. Which “activity change, negative = inhibition” value did it give?
A: The value was inactive: -21.8%.

Q: Which Potency does the source give for O=C(Nc1nc(-c2ccccn2)cs1)c1cc(Cl)ccc1[N+](=O)[O-] here?
A: The Potency was inconclusive: 44.7 µM [inhibitor, partial curve].

Q: How did the Potency turn out when Cc1ccc(N2C(=O)CS(=O)C(c3ccccc3)C2=O)cc1C (stereo not given) was run?
A: Its Potency is active: 22.4 µM.

Q: How did the Potency turn out when O=C(CN1N=C(c2ccccc2F)c2cc(Cl)ccc2S1(=O)=O)Nc1cc(F)ccc1F was run?
A: The Potency was inconclusive: 141 µM [inhibitor, partial curve, poor fit].

Q: Which Potency does the source give for CCSc1ccccc1C(=O)Nc1cccc(C)c1C here?
A: The Potency was inconclusive: 50.1 µM [inhibitor, partial curve, poor fit].

Q: With Fc1ccc(-c2csc(NCc3ccco3)n2)cc1F as the compound, how does the Potency read?
A: The Potency was inconclusive: 14.1 µM [inhibitor, full curve, poor fit].

Q: With COc1cc([C@@H]2c3cc4c(cc3[C@@H](O[C@@H]3O[C@@H]5CO[C@@H](C)O[C@H]5[C@H](O)[C@H]3O)[C@H]3COC(=O)[C@H]23)OCO4)cc(OC)c1O as the compound, how does the “activity change, negative = inhibition” value read?
A: The value was inactive: -2.92%.

Q: How did the Potency turn out when Cc1nc(C(=O)O)cc2c1[nH]c1ccccc12 was run?
A: The Potency was inconclusive: 56.2 µM [inhibitor, partial curve, poor fit].

Q: With CC(C)Oc1ccc(-c2cc(C(=O)O)c3ccccc3n2)cc1 as the compound, how does the Potency read?
A: The Potency was inconclusive: 31.6 µM [inhibitor, partial curve, poor fit].

Q: How did the “activity change, negative = inhibition” value turn out when COc1ccc(CN2Cc3[nH]cnc3C[C@H]2c2nc(-c3ccc(C(F)(F)F)cc3)no2)cc1 was run?
A: Its value is inactive: 4.05%.

Q: COc1cc(C)c2c(c1C)C[C@H](C(C)C(=O)NCc1ccco1)CC2 (stereo not given in full) was tested. Which Potency did it give?
A: The Potency was inconclusive: 50.1 µM [inhibitor, partial curve].

Q: For Cc1cc(C)c(SSc2nnnn2-c2ccccc2)c(C)c1, which Potency is on record?
A: The Potency was inconclusive: 25.1 µM [inhibitor, partial curve, poor fit].

Q: With O=C(O)c1cccc(NC(=S)NC(=O)c2ccncc2)c1 as the compound, how does the Potency read?
A: The Potency was inconclusive: 35.5 µM [inhibitor, partial curve].

Q: With CCN(CC)c1ccc(NC(=O)c2cc(S(N)(=O)=O)ccc2C)cc1 as the compound, how does the Potency read?
A: The Potency was inconclusive: 100 µM [inhibitor, single point].
